# The list shows a part of the results. These are further read-outs of the screen, such as a control signal, another cell line or another target. No call is given for them. The list favours compounds with an active or inconclusive main result. The note in brackets gives the kind of curve behind each potency; many fits are weak.
# Experiment: qHTS Assay for Lipid Storage Modulators in Drosophila S3 Cells;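 as to cell number change: cells counted by Cell Tracker Red CMTPX staining in the red channel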
# Conditions: BODIPY lipid droplet fluorescence, 18-24 h; for cell number change: measured here: cell count max response, cells fed with added oleic acid
# In short: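 Drosophila S3 cells loaded with oleic acid (400 uM, as added) and compounds at several concentrations; lipid droplets imaged by 488-nm laser-scanning cytometry, 500–530 nm intensity and object ratio to cell channel. Percent activity normalized to 20 uM Triacsin C.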
# [1] = measured here: cell number channel AC50, cells fed with added oleic acid
# [2] = measured here: lipid fluorescence (Fed channel) AC50, cells fed with added oleic acid
SMILES,AC50 [1],AC50 [2],cell number change [%]
CCC(=O)N(C)CCc1cc2c(c(OC)c1/C=N/NC(=O)c1ccccc1O)OCO2,"6.51 µM [rising, partial curve]","0.0206 µM [rising, full curve, poor fit]",
Cc1ccc(-c2cc(C(F)(F)F)nc(SCC(=O)c3cccc([N+](=O)[O-])c3)n2)cc1,,"8.2 µM [rising, partial curve]",17.8
c1ccc(Cn2nnc3c(NCC4CCCO4)nc(C4CC4)nc32)cc1 (centres undefined),"8.2 µM [rising, partial curve]","29.1 µM [rising, single point]",93.3
CCN(C(=O)CSc1nnc(-c2ccco2)n1Cc1ccccc1)C1CCS(=O)(=O)C1 (centres undefined),,"14.6 µM [falling, single point]",-8.65
CCOc1ccc(-c2nnn(CC(=O)NCCc3c[nH]c4ccccc34)n2)cc1,"1.64 µM [rising, partial curve]","2.31 µM [rising, partial curve]",1.43
Cc1ccc(C(=O)c2c3ccc([N+](=O)[O-])cc3[n+]([O-])n2CCCN)cc1,,,-2.9
O=C1CC(c2ccco2)CC(O)=C1C=Nc1cc(Cl)ccc1O (centres undefined),,"0.092 µM [falling, full curve, poor fit]",-0.271
N#CCc1ccc(C(=O)c2ccccc2)s1,"23.1 µM [rising, partial curve, poor fit]","5.8 µM [rising, full curve]",72.4
COc1ccc(Br)c(C(=O)OCc2cc(=O)oc3cc(C)ccc23)c1,,"16.4 µM [falling, partial curve]",14.1
NC(=O)c1ccc(-n2nnnc2SCC(=O)Nc2ccc(N3CCOCC3)c(Cl)c2)cc1,,"0.13 µM [falling, full curve, poor fit]",
COc1ccc(C(=O)CCN2CCCCCC2)cc1,"32.6 µM [falling, single point]","32.6 µM [falling, partial curve]",-33.4
Cc1cc(F)ccc1S(=O)(=O)Nc1ccccc1C(=O)N1CCCC1,,"20.6 µM [rising, partial curve]",-3.24
CN(C(=O)CSc1ncnc2sc3c(c12)CCC3)C1CCS(=O)(=O)C1 (centres undefined),,"0.82 µM [falling, single point]",-14
Cc1cc2[nH]c(=O)c(=O)[nH]c2cc1S(=O)(=O)N1CCC(C)CC1,"0.461 µM [rising, single point]","2.59 µM [falling, partial curve, poor fit]",3.75
Cc1nc(C)c(C(=O)O)c(-c2ccsc2)c1C(=O)O,"4.61 µM [falling, partial curve, poor fit]","3.66 µM [falling, single point]",-35.5
Cc1c(NC(C)C)c(=O)n(-c2ccccc2)n1C,"1.46 µM [falling, full curve, poor fit]","5.8 µM [falling, full curve]",-29.6
Oc1ccc(N2Cc3ccccc3C2)cc1,,"0.103 µM [rising, full curve, poor fit]",-2.59

# Single values from above.
# Cc1ccc(C(=O)c2c3ccc([N+](=O)[O-])cc3[n+]([O-])n2CCCN)cc1 – cell number change [%]: -2.9
# Oc1ccc(N2Cc3ccccc3C2)cc1 – cell number change [%]: -2.59

# (more compounds)

SMILES,AC50 [1],AC50 [2],cell number change [%]
COc1ccc2ccccc2c1C1CC(=O)N2CN(C3CCCCC3)CSC2=C1C#N (centres undefined),"6.51 µM [rising, single point]","6.51 µM [rising, single point]",39.9
CC1(C)NC(=O)N(CCCCSc2ccc(Cl)cc2)C1=O,"20.6 µM [falling, single point]","23.1 µM [falling, single point]",-32.2
COc1ccc(OC)c(NC(=S)NN2CCN(C)CC2)c1,"20.6 µM [rising, single point]","18.4 µM [rising, single point]",48.2
COc1cc(C)c(CN2CCC(Cc3ccccc3)CC2)cc1C,,"29.1 µM [falling, single point]",-17.7
CCOc1ccc(Nc2ncnc3c2cnn3C)cc1,,,-14.6
CCc1nc(C)cn1S(=O)(=O)c1cc([N+](=O)[O-])ccc1Cl,"4.11 µM [falling, single point]",,0.118
[O-][n+]1c2ccccc2c2n1CCN=C2c1ccc(Cl)cc1,,"4.11 µM [rising, partial curve]",20.9
COC(=O)c1ccc(COc2ncnc3sccc23)cc1,"0.103 µM [rising, full curve, poor fit]",,
CO/N=C/NC(=O)C1=NOC(CNc2ncc(C(F)(F)F)cc2Cl)C1 (centres undefined),"0.13 µM [falling, full curve, poor fit]","0.0103 µM [falling, full curve, poor fit]",
Cc1[nH]c2ccc(F)cc2c(=O)c1SC(F)(F)C(F)C(F)(F)F (centres undefined),"1.3 µM [rising, full curve]","0.411 µM [rising, full curve]",
COc1ccc(-c2cnnc(N/N=C/c3ccc(O)c(O)c3)n2)cc1,,"29.1 µM [falling, single point]",-18.4
O=C(NCc1ccccc1)C1CCCN(C(=O)c2ccc(F)cc2)C1 (centres undefined),"25.9 µM [falling, partial curve]","1.64 µM [falling, partial curve]",-85.2
Cn1c(SCC(=O)N/N=C/c2ccc([N+](=O)[O-])s2)nnc1-c1ccccc1,"14.6 µM [falling, partial curve, poor fit]",,-43
CCN1C(=O)[C@H]2[C@@H](c3ccc(-c4ccc(Cl)c(Cl)c4)cc3)N[C@@](Cc3ccccc3)(C(=O)OC)[C@H]2C1=O,,"0.651 µM [rising, single point]",15.6
Cc1ccc(Cc2c(C)nc3nc(SCC(=O)NCc4ccco4)nn3c2C)cc1,,"16.4 µM [rising, single point]",27.4
Cc1onc(-c2ccccc2Cl)c1C(=O)Nc1ccc(-n2nncc2C(C)(C)C)cc1,,"6.51 µM [rising, single point]",
Cc1cccc(OCCCC(=O)NCCc2ccccc2)c1,,"16.4 µM [rising, single point]",2.35

# — PubChem BioAssay AID2685 (National Center for Advancing Translational Sciences (NCATS), 2010)
